Measured values published in paper PMC8989540.
No constants are given. Whether binding was seen depends on the method and setting. Binding seen in cells or lysates may run through a third protein. Some results given as binding are weak or reduced against the parent protein; the word gives no strength.

Amino acid sequences for entries named in this document (tags omitted).
UniProt Q6PDQ2: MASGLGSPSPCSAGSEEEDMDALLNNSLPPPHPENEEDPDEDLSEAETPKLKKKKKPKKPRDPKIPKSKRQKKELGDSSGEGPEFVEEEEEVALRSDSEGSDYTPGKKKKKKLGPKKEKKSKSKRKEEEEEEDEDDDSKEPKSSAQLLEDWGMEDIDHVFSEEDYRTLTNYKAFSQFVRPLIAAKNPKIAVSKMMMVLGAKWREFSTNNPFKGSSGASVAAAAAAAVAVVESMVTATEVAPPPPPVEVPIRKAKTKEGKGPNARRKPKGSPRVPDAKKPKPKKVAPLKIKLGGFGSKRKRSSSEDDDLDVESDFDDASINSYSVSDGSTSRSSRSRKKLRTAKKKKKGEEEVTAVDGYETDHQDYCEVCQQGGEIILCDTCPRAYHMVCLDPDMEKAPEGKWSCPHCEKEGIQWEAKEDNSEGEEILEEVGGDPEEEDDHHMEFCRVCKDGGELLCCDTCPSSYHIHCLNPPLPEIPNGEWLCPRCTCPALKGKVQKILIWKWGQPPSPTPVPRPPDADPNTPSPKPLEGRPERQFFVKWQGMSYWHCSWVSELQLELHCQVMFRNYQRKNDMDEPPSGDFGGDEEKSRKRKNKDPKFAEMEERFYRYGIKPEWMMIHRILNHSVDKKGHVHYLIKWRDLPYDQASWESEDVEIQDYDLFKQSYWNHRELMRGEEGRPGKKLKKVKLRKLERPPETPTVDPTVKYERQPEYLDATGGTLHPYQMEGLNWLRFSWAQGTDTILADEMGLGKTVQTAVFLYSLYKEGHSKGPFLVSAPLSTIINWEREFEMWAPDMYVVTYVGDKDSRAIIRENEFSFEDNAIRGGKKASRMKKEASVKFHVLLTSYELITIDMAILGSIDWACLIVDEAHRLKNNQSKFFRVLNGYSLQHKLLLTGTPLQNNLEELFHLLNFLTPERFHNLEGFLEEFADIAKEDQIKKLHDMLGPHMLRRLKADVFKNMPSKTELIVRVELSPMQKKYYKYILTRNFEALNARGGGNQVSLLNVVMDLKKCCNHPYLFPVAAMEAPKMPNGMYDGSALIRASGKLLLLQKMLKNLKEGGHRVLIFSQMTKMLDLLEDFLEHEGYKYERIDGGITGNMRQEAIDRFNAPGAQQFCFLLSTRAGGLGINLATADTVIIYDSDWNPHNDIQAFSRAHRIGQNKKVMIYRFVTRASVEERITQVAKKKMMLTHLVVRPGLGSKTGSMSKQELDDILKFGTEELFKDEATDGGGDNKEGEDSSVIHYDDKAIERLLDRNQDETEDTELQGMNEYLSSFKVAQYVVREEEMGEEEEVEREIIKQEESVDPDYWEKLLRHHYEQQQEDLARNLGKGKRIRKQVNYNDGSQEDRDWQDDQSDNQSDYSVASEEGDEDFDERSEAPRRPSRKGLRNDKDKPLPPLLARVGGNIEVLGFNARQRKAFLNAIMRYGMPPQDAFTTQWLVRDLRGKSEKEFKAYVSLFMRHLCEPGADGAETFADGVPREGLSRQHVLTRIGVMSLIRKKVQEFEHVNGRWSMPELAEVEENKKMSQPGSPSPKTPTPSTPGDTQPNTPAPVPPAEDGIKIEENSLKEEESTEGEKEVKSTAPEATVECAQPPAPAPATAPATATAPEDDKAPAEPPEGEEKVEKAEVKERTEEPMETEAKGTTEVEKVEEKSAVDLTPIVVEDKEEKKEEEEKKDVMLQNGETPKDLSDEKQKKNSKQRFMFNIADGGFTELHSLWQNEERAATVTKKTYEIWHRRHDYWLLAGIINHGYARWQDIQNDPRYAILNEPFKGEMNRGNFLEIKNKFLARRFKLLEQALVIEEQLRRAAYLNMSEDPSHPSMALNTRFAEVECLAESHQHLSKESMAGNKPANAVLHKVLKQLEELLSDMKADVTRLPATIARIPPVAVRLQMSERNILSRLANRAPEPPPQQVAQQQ
UniProt Q14839: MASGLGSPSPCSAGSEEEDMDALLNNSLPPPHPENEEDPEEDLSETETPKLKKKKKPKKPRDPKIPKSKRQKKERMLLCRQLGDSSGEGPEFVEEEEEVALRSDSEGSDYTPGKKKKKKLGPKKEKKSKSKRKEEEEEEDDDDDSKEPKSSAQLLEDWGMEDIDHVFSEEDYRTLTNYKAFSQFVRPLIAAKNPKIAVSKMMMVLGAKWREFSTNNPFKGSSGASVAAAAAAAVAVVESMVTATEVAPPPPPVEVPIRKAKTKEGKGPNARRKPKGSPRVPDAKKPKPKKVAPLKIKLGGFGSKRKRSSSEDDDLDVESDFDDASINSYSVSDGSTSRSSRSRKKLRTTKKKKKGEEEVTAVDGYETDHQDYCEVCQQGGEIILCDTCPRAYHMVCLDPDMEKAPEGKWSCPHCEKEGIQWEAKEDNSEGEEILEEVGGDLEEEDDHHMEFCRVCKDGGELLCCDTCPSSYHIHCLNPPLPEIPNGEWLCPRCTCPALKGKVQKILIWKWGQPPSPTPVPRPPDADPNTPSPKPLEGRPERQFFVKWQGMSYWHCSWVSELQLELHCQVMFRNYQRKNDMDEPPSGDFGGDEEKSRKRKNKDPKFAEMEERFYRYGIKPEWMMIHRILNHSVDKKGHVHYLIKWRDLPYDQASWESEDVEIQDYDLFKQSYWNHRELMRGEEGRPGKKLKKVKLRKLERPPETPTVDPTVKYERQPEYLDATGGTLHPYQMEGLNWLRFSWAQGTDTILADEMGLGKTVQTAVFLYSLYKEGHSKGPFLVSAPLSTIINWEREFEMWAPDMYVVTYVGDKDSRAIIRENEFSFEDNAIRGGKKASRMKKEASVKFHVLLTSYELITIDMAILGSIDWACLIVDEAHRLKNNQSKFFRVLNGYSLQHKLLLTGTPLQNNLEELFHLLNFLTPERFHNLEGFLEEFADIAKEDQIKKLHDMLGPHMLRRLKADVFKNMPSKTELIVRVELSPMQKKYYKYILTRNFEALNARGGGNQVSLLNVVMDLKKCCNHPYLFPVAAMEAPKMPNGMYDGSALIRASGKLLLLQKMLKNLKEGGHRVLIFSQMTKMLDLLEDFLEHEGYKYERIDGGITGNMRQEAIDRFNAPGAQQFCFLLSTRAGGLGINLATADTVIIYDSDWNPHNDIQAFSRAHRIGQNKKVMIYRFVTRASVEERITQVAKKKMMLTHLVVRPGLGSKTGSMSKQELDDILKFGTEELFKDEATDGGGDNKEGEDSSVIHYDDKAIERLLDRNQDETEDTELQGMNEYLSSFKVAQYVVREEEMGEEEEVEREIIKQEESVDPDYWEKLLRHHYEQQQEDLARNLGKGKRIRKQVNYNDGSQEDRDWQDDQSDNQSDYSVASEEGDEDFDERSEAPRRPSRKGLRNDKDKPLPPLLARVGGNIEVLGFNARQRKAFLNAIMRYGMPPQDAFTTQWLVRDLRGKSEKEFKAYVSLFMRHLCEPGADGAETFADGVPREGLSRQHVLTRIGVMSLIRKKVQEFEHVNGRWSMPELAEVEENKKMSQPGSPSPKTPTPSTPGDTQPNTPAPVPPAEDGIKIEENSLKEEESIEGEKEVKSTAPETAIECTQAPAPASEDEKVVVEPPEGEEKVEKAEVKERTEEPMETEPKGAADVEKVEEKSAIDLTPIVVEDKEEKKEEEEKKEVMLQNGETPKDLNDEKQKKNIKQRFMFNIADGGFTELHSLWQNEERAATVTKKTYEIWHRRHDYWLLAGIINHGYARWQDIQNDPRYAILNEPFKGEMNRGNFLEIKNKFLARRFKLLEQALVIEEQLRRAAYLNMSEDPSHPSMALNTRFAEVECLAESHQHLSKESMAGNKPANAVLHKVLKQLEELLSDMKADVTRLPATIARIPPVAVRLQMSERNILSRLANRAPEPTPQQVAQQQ
UniProt Q3URK3: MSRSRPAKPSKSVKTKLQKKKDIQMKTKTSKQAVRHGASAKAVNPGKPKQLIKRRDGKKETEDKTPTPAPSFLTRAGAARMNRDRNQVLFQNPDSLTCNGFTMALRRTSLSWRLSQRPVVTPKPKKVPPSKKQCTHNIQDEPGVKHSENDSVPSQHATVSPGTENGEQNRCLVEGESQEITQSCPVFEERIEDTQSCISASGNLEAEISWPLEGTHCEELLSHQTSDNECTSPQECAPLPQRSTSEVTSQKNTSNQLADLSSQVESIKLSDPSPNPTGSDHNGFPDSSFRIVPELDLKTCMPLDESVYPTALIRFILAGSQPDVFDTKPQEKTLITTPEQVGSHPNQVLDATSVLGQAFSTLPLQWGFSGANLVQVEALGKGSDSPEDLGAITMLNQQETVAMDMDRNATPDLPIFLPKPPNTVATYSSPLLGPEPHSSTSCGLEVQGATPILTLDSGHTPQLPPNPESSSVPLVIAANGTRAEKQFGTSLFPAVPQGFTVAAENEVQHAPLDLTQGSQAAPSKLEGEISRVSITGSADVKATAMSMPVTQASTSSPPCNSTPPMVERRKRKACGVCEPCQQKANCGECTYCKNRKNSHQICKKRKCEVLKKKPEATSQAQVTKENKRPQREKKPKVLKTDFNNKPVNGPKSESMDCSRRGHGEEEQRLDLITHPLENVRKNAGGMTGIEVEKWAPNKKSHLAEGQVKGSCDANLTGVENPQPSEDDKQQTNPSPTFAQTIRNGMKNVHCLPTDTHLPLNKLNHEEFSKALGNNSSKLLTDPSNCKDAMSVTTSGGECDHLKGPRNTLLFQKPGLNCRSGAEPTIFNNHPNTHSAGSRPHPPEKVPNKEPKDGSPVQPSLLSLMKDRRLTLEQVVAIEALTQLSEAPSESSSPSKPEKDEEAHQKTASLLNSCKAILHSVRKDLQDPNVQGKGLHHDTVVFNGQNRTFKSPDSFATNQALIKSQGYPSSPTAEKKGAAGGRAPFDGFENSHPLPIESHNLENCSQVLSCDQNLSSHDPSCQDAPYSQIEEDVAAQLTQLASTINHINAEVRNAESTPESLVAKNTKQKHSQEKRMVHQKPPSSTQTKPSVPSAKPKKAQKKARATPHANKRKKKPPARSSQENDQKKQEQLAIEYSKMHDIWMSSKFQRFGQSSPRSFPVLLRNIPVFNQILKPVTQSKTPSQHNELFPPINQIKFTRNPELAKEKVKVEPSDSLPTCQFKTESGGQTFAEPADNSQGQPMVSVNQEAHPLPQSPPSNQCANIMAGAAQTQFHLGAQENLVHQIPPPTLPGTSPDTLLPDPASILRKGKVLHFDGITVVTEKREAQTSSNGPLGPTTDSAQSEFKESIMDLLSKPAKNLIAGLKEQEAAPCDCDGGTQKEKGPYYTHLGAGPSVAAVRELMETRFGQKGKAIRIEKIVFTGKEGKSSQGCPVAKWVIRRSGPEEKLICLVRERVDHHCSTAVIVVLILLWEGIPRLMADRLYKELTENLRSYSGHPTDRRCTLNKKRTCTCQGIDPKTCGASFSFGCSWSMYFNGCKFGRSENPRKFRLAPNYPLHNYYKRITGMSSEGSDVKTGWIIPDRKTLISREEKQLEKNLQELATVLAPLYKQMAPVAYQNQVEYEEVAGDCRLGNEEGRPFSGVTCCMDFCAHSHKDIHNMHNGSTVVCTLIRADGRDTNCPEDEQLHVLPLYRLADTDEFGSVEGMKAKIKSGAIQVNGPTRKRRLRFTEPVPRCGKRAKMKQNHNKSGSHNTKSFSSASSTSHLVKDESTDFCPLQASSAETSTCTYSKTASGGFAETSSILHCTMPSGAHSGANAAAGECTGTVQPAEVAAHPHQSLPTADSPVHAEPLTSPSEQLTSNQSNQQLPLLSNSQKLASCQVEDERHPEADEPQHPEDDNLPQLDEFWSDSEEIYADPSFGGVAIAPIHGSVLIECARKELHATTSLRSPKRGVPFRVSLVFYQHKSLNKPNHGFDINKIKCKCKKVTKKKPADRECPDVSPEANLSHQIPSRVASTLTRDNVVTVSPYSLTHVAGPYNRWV

Legend:
[1] = biological target: Chd4 (endogenous in mouse ESCs) (mouse (endogenous in V6.5 ESCs)) (UniProt Q6PDQ2); assay: co-IP; wild type ESC nuclear extracts treated with benzonase; anti-Chd4 antibody; western blot; Tet1-/- ESCs as negative control
Chd4 in HEK293T cells = Chd4 in HEK293T cells (UniProt Q14839); assay: co-IP; HEK293T cells exogenously expressing Tet1-FL; anti-Chd4 antibody; empty vector cells as negative control

Substance | binding [1] | binding (Chd4 in HEK293T cells)
Tet1 (wild type, endogenous in Tet1+/+ ESCs) (from UniProt Q3URK3 1-2039) | binds weakly | 
full length Tet1 (Tet1-FL), exogenously expressed in HEK293T cells (from UniProt Q3URK3 1-2039) |  | binds weakly
